The text below walks through data of US20210002231A1 (Centre National de la Recherche Scientifique, priority 2018, published 2021).

Non-standard residues stand in square brackets, D forms with d. Bpa = N[C@@H](Cc1ccc(C(=O)c2ccccc2)cc1)C(=O)O; Dmt = Cc1cc(O)cc(C)c1C[C@H](N)C(=O)O; Orn = NCCC[C@H](N)C(=O)O; βAla = NCCC(=O)O

The first data set is described as follows: general procedure: Fmoc solid-phase peptide synthesis; MBHA; DIC/HOBt; HCTU/NMM; DIC/oxyma-pure. As to conditions: whole synthesis.
On to H-Dmt-D-Arg-Aba-b-Ala-Lys(Box)-Phe-NH2, for which the isolated yield was determined as 43%.
H-Dmt-D-Arg-Aba-b-Ala-Lys(Bim)-Phe-NH2 had an isolated yield of 22%.
H-Dmt-D-Arg-Aba-b-Ala-Lys(Bth)-Phe-NH2 showed an isolated yield of 39%.

The nature of a further data set: general procedure: Fmoc solid-phase peptide synthesis; FMPB-AM resin (KGFF13); MBHA-resin (KGFF14-16); 2-chlorotrityl chloride resin (dipeptide for KGFF12); DIC/HOBt; HCTU/NMM; DIC/oxyma-pure. Particulars: whole synthesis.
Take H-Dmt-D-Arg-Phe-N(Me)-β-Ala-Bpa-Phe-NH2: the isolated yield amounted to 5%.
In turn, H-Dmt-N(Me)-D-Ala-1AnaGly-Bpa-Phe-NH2 showed an isolated yield of 3%.
On the same count and under the same terms, under H-Dmt-D-Arg-Aba-β-Ala-D-Bpa-Phe-NH2 stands 2%; under H-Dmt-D-Arg-Aba-β-Ala-Bpa-Phe-β-Ala-NH2, 1%.
For the substance H-Dmt-D-Lys-Aba-β-Ala-Bpa-Phe-NH2, the isolated yield is 9%.
Same read-out and setting: under “Guanidyl-Dmt-D-Arg-Aba-β-Ala-Bpa-Phe-NH2” stands 10%; under 7-OH-Tic-D-Arg-Aba-β-Ala-Bpa-Phe-NH2, 1%.
On the same count and under the same terms, to H-Dmt-D-Arg-AbaGABA-Bpa-Trp-NH2 belongs 1%.
As to H-Dmt-D-Arg-Aba-β-Ala-Bpa-Val-NH2, the isolated yield was determined as 8%.
Regarding H-Dmt-D-Arg-Aba-Gly-Arg-Phe-OH, the isolated yield was 20%.
Same read-out and setting: to H-Dmt-D-Arg-Aba-Gly-Orn-Phe-NH2 belongs 17%; to H-Dmt-D-Arg-Aba-β-Ala-THIQ-Phe-NH2, 4%; to H-[Dmt][dR]F[βAla][Bpa]F-NH2, 2%.
Take H-Dmt-D-Arg-Aba-β-Ala-Bpa-D-Phe-NH2: the isolated yield was 1%.
For H-Dmt-D-Arg-1AnaGly-Bpa-Phe-NH2, the isolated yield is on record as 1%.
Same read-out and setting: under H-Dmt-D-Arg-Phe-N(Me)Gly-Bpa-Val-NH2 stands 22%; under H-Dmt-D-Pro-Aba-β-Ala-Bpa-Phe-NH2, 9%; under H-Dmt-D-Orn-Aba-β-Ala-Bpa-Phe-NH2, 11%.
In turn, H-Dmt-N(Me)-D-Ala-AbaGABA-Bpa-Phe-NH2 yielded an isolated yield of 6%.
In the case of H-Dmt-D-Arg-Aba-β-Ala-Bpa-Leu-NH2, the isolated yield is recorded as 24%.
Same read-out and setting: under H-Dmt-D-Arg-Aba-Gly-Arg-Phe-NH2 stands 15%.
For H-Dmt-D-Arg-1AnaGly-Bpa-Val-NH2, the isolated yield stood at 4%.
On the same count and under the same terms, under H-[Dmt][dR]F[Orn]F-NH2 stands 27%.
On to H-Dmt-N(Me)-D-Ala-Aba-β-Ala-Bpa-Phe-NH2, for which the isolated yield was found to be 2%.
In turn, H-Dmt-D-Arg-Aba-b-Ala-Apa-Phe-NH2 showed an isolated yield of 20%.
H-Dmt-D-Arg-Phe-N(Me)Gly-Bpa-Phe-NH2: the isolated yield was determined as 27%.
As to H-Dmt-D-Arg-AbaGABA-Bpa-Phe-NH2, the isolated yield is listed as 2%.
The same measure, in the same setting: to H-Dmt-D-Arg-Aba-β-Ala-Bpa-Ile-NH2 belongs 15%.
Take H-Dmt-D-Arg-Aba-β-Ala-Bpa-Trp-NH2: the isolated yield worked out at 15%.
Still for that read-out and setting: under H-Dmt-D-Arg-Aba-b-Ala-Arg-Phe-NH2 stands 18%; under H-Dmt-D-Arg-1AnaGly-Bpa-Trp-NH2, 1%.
H-Dmt-D-Lys(Nic)-Aba-β-Ala-Bpa-Phe-NH2 showed an isolated yield of 21%.
For the substance H-Dmt-D-Arg-AbaGABA-Bpa-Val-NH2, the isolated yield was found to be 3%.
In turn, H-Dmt-D-Arg-Aba-β-Ala-Bpa-Tyr-NH2 registered an isolated yield of 28%.
In turn, H-Dmt-D-Arg-Phe-N(Me)-D-Ala-Bpa-Phe-NH2 returned an isolated yield of 11%.
With H-Dmt-D-hArg-Aba-β-Ala-Bpa-Phe-NH2, the isolated yield is 14%.
The substance H-Dmt-D-Bpa-Aba-β-Ala-Bpa-Phe-NH2 registered an isolated yield of 4%.
Consider H-Dmt-D-Arg-Aba-b-Ala-Bpa-Phe-NH2, for which the isolated yield worked out at 17%.
On the same count and under the same terms, to H-Dmt-Nlys-Aba-β-Ala-Bpa-Phe-NH2 belongs 19%.
